From PubChem BioAssay AID651640 (Broad Institute, 2012)
In all, about 350,000 compounds went through this assay and about 6,000 (1.7%) were called active. This list was built around the results that the source calls inconclusive (neither active nor inactive); the mix of calls is not that of the screen. Cut-off read from the data, not from the text of the source: active = CPE inhibition above about 20% (passing the limit was not always enough); inconclusive = no clear call, values can overlap the other calls; tested in BHK-21 cells.

Experiment: protection of cells from dengue 2 killing – plate reader, single concentration, primary screen (AID 651640);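 note: 0% = median of neutral control wells and 100% = median of positive control wells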
Settings: DENV2-infected cells, cytopathic effect rescue, at 9.99 µM, hits give high values

Compound	CPE inhibition
COc1ccc(-c2cc(=O)oc3cc(OC(C)C(=O)NC(Cc4c[nH]c5ccc(O)cc45)C(=O)O)ccc23)cc1 (stereo unspecified)	inconclusive: 68.6%
COc1ccc(CN(C)C[C@H]2Oc3ccc(NS(=O)(=O)c4cccs4)cc3C(=O)N([C@H](C)CO)C[C@H]2C)cc1	inactive: 5.1%
NC(c1csc(Nc2ccc(C(=O)NCCO)cc2)n1)C1CCCCC1 (stereo unspecified)	active: 22.3%
COc1cc(C(=O)OCCn2c(=O)c3c(ncn3CCN(C)C)n(C)c2=O)cc(OC)c1OC	active: 24.7%
O=C(N/N=C/c1ccc[nH]1)c1ccccc1OCc1ccc(F)cc1	inactive: 0.804%
O=S(=O)(Nc1ccc2ccccc2c1)N1CCCCC1	inconclusive: 77.3%
Cn1ccc2c(/C=C/c3ccc(F)cc3)cc3c(c21)C1CCC3C1 (stereo unspecified)	inconclusive: 20%
COCC(=O)N(C)C[C@H]1Oc2cc(-c3ccc(OC)cc3)ccc2S(=O)(=O)N([C@@H](C)CO)C[C@H]1C	inactive: 2.07%
O=C(C[C@@H]1CC[C@@H]2[C@H](COC[C@H](O)CN2Cc2ccc3c(c2)OCO3)O1)Nc1ccc(-c2ccccc2)cc1	inactive: 2.97%
O=C(c1ccc(CS(=O)(=O)c2ccc(Br)cc2)o1)N1CCOCC1	inconclusive: 42.2%
O=S(=O)(NCc1c(Cl)cccc1Oc1ccccc1)c1ccccc1	active: 31.7%
COc1ccc2c3c(n(C)c2c1)[C@H](CO)N(CC1CCCCC1)CC31CCN(Cc2nccs2)CC1	active: 22.7%
CN1c2ccc(-c3ccccc3)cc2[C@@H]2[C@@H](CCN2C(=O)c2ccc(F)cc2)[C@@H]1CO	inactive: 7.95%
Cc1noc(C)c1NC(=O)N(C)C[C@@H]1OCCCC[C@H](C)Oc2ccc(NC(=O)C3CCCCC3)cc2C(=O)N([C@@H](C)CO)C[C@H]1C	inconclusive: 20.8%
CCCNC(=O)N(C)C[C@H]1Oc2ncc(-c3ccc(F)cc3)cc2C(=O)N([C@@H](C)CO)C[C@@H]1C	inactive: -4.95%
COc1ccc(NC(=O)c2oc3ccccc3c2CSC)cn1	inactive: -0.754%
O=C(NC[C@H]1[C@@H](c2ccccc2)[C@H](CO)N1C(=O)C1CCC1)NC1CCCC1	inconclusive: 53.7%
CN(C)/C=C/C(=O)c1ccc2noc(-c3ccccc3)c2c1	inactive: 5.79%
CO[C@H]1CN(C)C(=O)c2cc(NC(=O)c3ccccc3F)ccc2OC[C@H](C)N(C(=O)c2ccccc2F)C[C@H]1C	inactive: -2.25%
COc1ccc(-c2cc(C#N)nc(NN)n2)cc1	active: 46.6%
C[C@@H]1NS(=O)(=O)c2c(F)cccc2O[C@@H]1c1ccccc1	inactive: -1.08%

Taken from above.
O=S(=O)(NCc1c(Cl)cccc1Oc1ccccc1)c1ccccc1 | CPE inhibition: active: 31.7%
O=C(c1ccc(CS(=O)(=O)c2ccc(Br)cc2)o1)N1CCOCC1 | CPE inhibition: inconclusive: 42.2%
